Experiments:
[1] = molecular target: T1, recombinant CASTOR1 (Cellular Arginine Sensor for mTORC1; protein encoded by the GATS protein-like 3 gene) (human, UniProt Q8WTX7 1-329); test: co-immunoprecipitation, anti-HA IP from co-transfected HEK-293T cells starved of all amino acids 50 min
T1 construct: Expressed from pRK5 vectors in HEK-293T cells; which tag was used depends on the experiment; also called GATSL3; CASTOR1-HA
T1 sequence (looked up): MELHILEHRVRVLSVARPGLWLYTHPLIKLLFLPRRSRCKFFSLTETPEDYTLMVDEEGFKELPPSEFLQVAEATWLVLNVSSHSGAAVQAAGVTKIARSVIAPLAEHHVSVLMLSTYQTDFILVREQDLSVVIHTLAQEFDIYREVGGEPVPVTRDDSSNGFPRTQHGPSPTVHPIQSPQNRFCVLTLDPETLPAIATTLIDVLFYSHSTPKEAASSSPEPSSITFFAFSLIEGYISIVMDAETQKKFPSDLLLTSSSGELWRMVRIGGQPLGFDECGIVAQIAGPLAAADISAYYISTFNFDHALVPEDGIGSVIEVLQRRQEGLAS
Method: (§1) FIG. 8A depicts validation of the anti-serum used to detect endogenous CASTOR2. Lysates were prepared from HEK-293T lines stably expressing the indicated shRNAs and analyzed by immunoblotting for levels of indicated proteins. FIG. 8B depicts validation of the anti-serum used to detect endogenous CASTOR1. Lysates were prepared from HEK-293T stably lines expressing the indicated shRNAs and analyzed as in (8C). The arrow denotes the band corresponding to endogenous CASTOR1. […] HEK-293T cells were cotransfected with the indicated cDNAs in expression vectors, starved of all amino acids for 50 minutes, and anti-HA immunoprecipitates were analyzed as in FIG. 1D. […] HEK-293T cells were cotransfected with the indicated cDNAs in expression vectors, starved of all amino acids for 50 minutes, and anti-HA immunoprecipitates were analyzed as in FIG. 1D.

[2] = molecular target: T2, recombinant CASTOR2 (protein encoded by the GATSL2 gene) (human, UniProt A6NHX0 1-329); test: as above
T2 construct: Expressed from pRK5 vectors in HEK-293T cells; the tag and its position depend on the experiment; also called CASTOR2-HA; CASTOR2-FLAG; not shown: printed both as CASTOR2-HA / CASTOR2-FLAG and as HA-CASTOR2 / myc-CASTOR2, so the end that
T2 sequence (looked up): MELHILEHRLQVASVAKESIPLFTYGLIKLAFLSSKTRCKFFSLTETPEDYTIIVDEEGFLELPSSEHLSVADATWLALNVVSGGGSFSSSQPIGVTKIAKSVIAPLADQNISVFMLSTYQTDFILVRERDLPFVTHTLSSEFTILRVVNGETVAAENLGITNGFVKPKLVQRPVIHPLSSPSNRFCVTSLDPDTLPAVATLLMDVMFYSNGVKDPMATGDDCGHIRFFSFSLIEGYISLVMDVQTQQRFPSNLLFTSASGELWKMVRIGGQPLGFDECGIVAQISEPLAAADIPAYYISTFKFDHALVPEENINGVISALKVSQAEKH
Method: as §1

[3] = molecular target: T3, endogenous GATOR2 complex (Seh1L, WDR59, WDR24, Sec13 and Mios) (human, UniProt Q9NXC5 1-875; Q96S15 1-790; Q6PJI9 1-974; P55735 2-322; Q96EE3 1-360, limits assumed); test: co-immunoprecipitation, anti-HA IP from transfected HEK-293T cells starved of all amino acids 50 min, immunoblot for endogenous mios
T3 construct: Five-subunit complex; In most blots its presence is read from the mios band; also called detected by mios
Method: as §1

- binding result [1]: no binding
- binding result [2]: no binding
- binding result [3]: no binding
B1: recombinant FAM164A (other, UniProt Q96GY0 1-325, looked up)
chain: MEGLEENGGVVQVGELLPCKICGRTFFPVALKKHGPICQKTATKKRKTFDSSRQRAEGTDIPTVKPLKPRPEPPKKPSNWRRKHEEFIATIRAAKGLDQALKEGGKLPPPPPPSYDPDYIQCPYCQRRFNENAADRHINFCKEQAARISNKGKFSTDTKGKPTSRTQVYKPPALKKSNSPGTASSGSSRLPQPSGAGKTVVGVPSGKVSSSSSSLGNKLQTLSPSHKGIAAPHAGANVKPRNSTPPSLARNPAPGVLTNKRKTYTESYIARPDGDCASSLNGGNIKGIEGHSPGNLPKFCHECGTKYPVEWAKFCCECGIRRMIL
notes: Collected by anti-HA immunoprecipitation, so probably HA-tagged; the construct is not described
